Measured values from PMC10922812 (Antiviral research, 2024).

Columns and labels:
[1] = tested on: SVGA cells; assay: MTS cell viability assay, SVGA cells; type: cell-based, human; settings: SVGA 48 h, vs DMSO control
[2] = tested on: Vero cells; assay: MTS cell viability assay, Vero cells; type: cell-based, African green monkey; settings: Vero 48 h, vs DMSO control
[3] = tested on: RPTEC; assay: MTS cell viability assay, RPTEC; type: cell-based, human; settings: RPTEC 48 h, vs DMSO control
[4] = tested on: HEK-2C cells; assay: MTS cell viability assay, HEK-2C cells; type: cell-based; settings: HEK-2C 48 h, vs DMSO control

## COC(=O)C1=C(C)NC(C)=C(C(=O)OC)C1c1ccccc1[N+](=O)[O-] [Nifedipine]
[1]
  Concentration with % Viability < 80%: 200 µM
  Concentration with % Viability ≥ 80%: 150 µM
  Concentration with % Viability ≥ 85%: 75 µM
[2]
  Concentration with % Viability ≥ 85%: 100 µM
  Concentration with % Viability ≥ 95%: 75 µM
  Concentration with % Viability ≥ 100%: 20 µM
[3]
  Concentration with % Viability ≥ 80%: 100 µM
  Concentration with % Viability ≥ 85%: 50 µM
[4]
  Concentration with % Viability ≥ 95%: 100 µM
  Concentration with % Viability ≥ 100%: 50 µM
